The source of these data is patent US20140081011A1.

No constants are given. Whether binding was seen depends on the method and setting. Binding seen in cells or lysates may run through a third protein. Some binding calls cover weakened binding; strength is not graded here.

For the assay, the target named is recombinant human 4-1BB Receptor/Fc Chimera (R&D Systems) (human) (UniProt Q07011+P01857). Put plainly: co-immunoprecipitation; 4-1BB Receptor/Fc on Protein A magnetic beads, SDS-PAGE gel.

Consider “recombinant 4-1BB Ligand (R&D Systems) (from UniProt P41273 71-254)”, for which the binding entry is reported as “binds”.
